This is one part of the list.
B1: il2ra_site2_3nfp_normal_mot_HHH_b2_05605_000000133_0001_1_20_H_._HHH_b1_03122_0001_0000900026_0000001_1 (protein)
chain: SSSSNEEHERLWELAREAFELLEEGNPEEAEEVLEEARELAERLDNRSALRSIEELLKDLNSSSS
B2: il2ra_site1_1z92_sap_11_mot_HHH_b1_04488_000000139_0001_42_58_H_._HHH_b2_08307_af2_0001_0000200009_0000001_0_0001 (protein)
chain: DESMRRDLERSRELGFPPEQAVRAVIRAIADIDRVPPEEAAEILLEVLEKLGDPELAEIAEELTP
B3: il2ra_site2_2erj_sap_32_mot_67015be16ebd8dbc84c30b734c1036f2_0001_000000253_0001_18_33_H_._HHH_b2_02893_0001_0000300012_0000001_1_0001 (protein)
chain: SSSSDEVHRLYELLEELLRLLHEGDPEEIEELTEEVEKLAREAQSPNAEEVAEWILRRARSSSSS
B4: il2ra_site2_3nfp_sap_21_mot_HHH_b1_05400_af2_000000127_0001_43_57_H_._49468d6c54d8157f7969f91124172a68_0001_0001_0000200005_0000001_0_0001 (protein)
chain: SSSSSSDEEEELARELEELAEEIEDEQAREYVEALAKLLEETGDPRLREAARLAQWAHSSSSSSS
B5: il2ra_site2_2erj_sap_16_mot_HHH_b1_08207_af2_000000250_0001_43_57_H_._HHH_b1_04144_af2_0001_0000200007_0000001_1_0001 (protein)
chain: SSSSDLTMFAFRLVSRLTQELGLDAQQAAELFEFALELFERGVSEEEIKELVEELAEKLRGSSSS
B6: il2ra_site1_1z92_sap_16_mot_3afbd42359c492d9a5ba12d7e5b15de5_0001_000000167_0001_17_33_H_._HHH_b2_04284_0001_0000300007_0000001_1_0001_af2pred_0001_af2pred_1_sw … (protein)
chain: DEEIERLLREILEESNGNPEVAERELRIIRELAGGDPERVARIVAKLLRAQGDPEATEKVEELLK
B7: il2ra_site1_3nfp_normal_mot_ems_3hC_775_af2_000000149_0001_42_60_H_._HEEHE_2118_af2_0001_0000200016_0000001_0 (protein)
chain: DREEAFKEAVERLAEIAGVPHVEVEVSNGKVHVTFSGDDSQARHASKLVERAAESRGIKVEVEVE
B8: il2ra_site2_2erj_sap_20_mot_c2dd1dc352432ff47dded349a4d391fc_0001_1_000000244_0001_1_14_H_._HHH_b2_04613_af2_0001_0000100001_0000001_0_0001_af2pred_0001_1_af2pr … (protein)
chain: SSSSSDQEERIVEELIKELGGSEEDEEEARRSAKNARESGYSKESIEWYLRAAIEANLSKSSSSS
B9: il2ra_site2_3nfp_normal_mot_cd0404b092e50786c9feee19bb04a385_0001_af2_000000191_0001_16_31_H_._HHH_b2_06650_0001_0000100001_0000001_0_af2pred_0001_af2pred_1 (protein)
chain: SSSSSEEVKEALRLASELARRLYEEGDEETALELLELARRLKEEGDPELARELLEFVEEFSSSSS
B10: il2ra_site2_3nfp_sap_14_mot_HHH_b2_06150_000000230_0001_39_53_H_._HHH_b2_03345_af2_0001_0000700020_0000001_0_0001_af2pred_0001_1_af2pred_swapped (protein)
chain: DLREVLEELLEEGDPKLLEEALMLALKLLEEDPNDEKARRISNLLAEYDAEGDPRAIEEALEIAR
B11: il2ra_site1_3nfp_sap_21_mot_ems_3hC_3_0002_000000237_0001_23_41_H_._HHH_b2_07018_0001_0000100001_0000001_0_0001 (protein)
chain: DVVEELEELLEELGVPPKEIKTIAWYLRVAAETLGDPKEALKRLLEDARKIGNPEAEEVVELLLK
B12: il2ra_site1_3nfp_sap_15_mot_HHH_b1_04357_000000099_0001_1_19_H_._HHH_b1_03761_0001_0000500037_0000001_0_0001_af2pred_0001_af2pred_swapped (protein)
chain: PERLLEELLELAKRDPDPEVREIVEEVEEVLKRDPEEALELLLELLRELGDPAAVRLVELLLRLL
B13: il2ra_site2_3nfp_sap_13_mot_HHH_b2_00482_000000184_0001_1_21_H_._49678f45da0a336f03cbe5a93813d6e2_0001_1_af2_0001_0000300012_0000001_0_0001_af2pred_0001_af2pred (protein)
chain: SSSSSSSDEEEVEELLEEAKRIDDEFEFFAVLALAVEIALRSDNEELEKLVKEVSRKKRSSSSSS
B14: il2ra_site1_2b5i_sap_19_mot_896e48d2d441ca48be90d8e148bbf30e_0001_1_af2_000000028_0001_35_48_H_._HHH_b2_01204_af2_0001_0000100007_0000001_0_0001_af2pred_dldesig … (protein)
chain: SSSSSDLEAEAEAALAKARELKEAGKRREALEELEKIAKKLDENDDEELLARVEELAKELSSSSS
B15: il2ra_site2_3nfp_sap_18_mot_ems_p1-15H-GBL-16H-GBL-14H_0089_0001_0001_0001_af2_000000072_0001_19_33_H_._HHH_b1_06056_0001_0000300024_0000001_0_0001 (protein)
chain: SSSSSSDHEAYEKVVELLKEASQIEDPEERREVLEEARELAEEARSPVLRRSVEFVAEALSSSSS
B16: il2ra_site1_1z92_normal_mot_934a834d9b8b770824478def2ff2f329_0001_af2_000000088_0001_15_30_H_._962fa67eee94b9f6762fa8d12b0fa7b0_0001_1_af2_0001_0000100002_00000 … (protein)
chain: SELEEALQILLEKTGDPLLRILLEMVRRALEQGHSDPEAILRDIRKFLEFAGNPELAKELEELFK
B17: il2ra_site2_2erj_normal_mot_HHH_b1_08231_000000000_0001_20_37_H_._HHH_b1_05068_af2_0001_0000400013_0000001_0 (protein)
chain: SSSSDLEEEVERLIKQAEELLEEGNPEEAEELLSEAFTLAYEANDPRLAALVIELMHLVARSSSS
B18: il2ra_site2_3nfp_sap_14_mot_HHH_b2_00746_000000285_0001_20_36_H_._HHH_b2_02385_af2_0001_0000500019_0000001_0_0001 (protein)
chain: SSSSDEEAQELLEEAKELLKDEELREEAEQALLRAAALAWEEGDFELYMEIAELAFEVVQSSSSS
B19: il2ra_site2_3nfp_normal_mot_HHH_b2_06150_000000230_0001_39_53_H_._HHH_b1_07886_af2_0001_0000500017_0000001_0 (protein)
chain: SSSSSSEEVEELLEEAERLLREGNPEEAKQVLARAAAIAYELGDQRLFIEVAELVLKILRSSSSS

Each binder was assayed against il2ra, P01589 (assay: yeast display titration).

Apparent Kd, inactive:
B1 no binding seen
B2 no binding seen
B3 no binding seen
B4 no binding seen
B5 no binding seen
B6 no binding seen
B7 no binding seen
B8 no binding seen
B9 no binding seen
B10 no binding seen
B11 no binding seen
B12 no binding seen
B13 no binding seen
B14 no binding seen
B15 no binding seen
B16 no binding seen
B17 no binding seen
B18 no binding seen
B19 no binding seen

Pulled one by one from the list above, 2 records:
Apparent Kd, inactive:
B16 no binding seen
B15 no binding seen
